From article PMC2660419
No constants are given. Whether binding was seen depends on the method and setting. Binding seen in cells or lysates may run through a third protein. Some entries that bind do so weakly or less than the wild type. Where a sequence is shown, tags or fusion partners need not be part of it.

Molecular target: T1, myc-tagged full-length human Teashirt3 (human) (UniProt Q63HK5)
T1 sequence: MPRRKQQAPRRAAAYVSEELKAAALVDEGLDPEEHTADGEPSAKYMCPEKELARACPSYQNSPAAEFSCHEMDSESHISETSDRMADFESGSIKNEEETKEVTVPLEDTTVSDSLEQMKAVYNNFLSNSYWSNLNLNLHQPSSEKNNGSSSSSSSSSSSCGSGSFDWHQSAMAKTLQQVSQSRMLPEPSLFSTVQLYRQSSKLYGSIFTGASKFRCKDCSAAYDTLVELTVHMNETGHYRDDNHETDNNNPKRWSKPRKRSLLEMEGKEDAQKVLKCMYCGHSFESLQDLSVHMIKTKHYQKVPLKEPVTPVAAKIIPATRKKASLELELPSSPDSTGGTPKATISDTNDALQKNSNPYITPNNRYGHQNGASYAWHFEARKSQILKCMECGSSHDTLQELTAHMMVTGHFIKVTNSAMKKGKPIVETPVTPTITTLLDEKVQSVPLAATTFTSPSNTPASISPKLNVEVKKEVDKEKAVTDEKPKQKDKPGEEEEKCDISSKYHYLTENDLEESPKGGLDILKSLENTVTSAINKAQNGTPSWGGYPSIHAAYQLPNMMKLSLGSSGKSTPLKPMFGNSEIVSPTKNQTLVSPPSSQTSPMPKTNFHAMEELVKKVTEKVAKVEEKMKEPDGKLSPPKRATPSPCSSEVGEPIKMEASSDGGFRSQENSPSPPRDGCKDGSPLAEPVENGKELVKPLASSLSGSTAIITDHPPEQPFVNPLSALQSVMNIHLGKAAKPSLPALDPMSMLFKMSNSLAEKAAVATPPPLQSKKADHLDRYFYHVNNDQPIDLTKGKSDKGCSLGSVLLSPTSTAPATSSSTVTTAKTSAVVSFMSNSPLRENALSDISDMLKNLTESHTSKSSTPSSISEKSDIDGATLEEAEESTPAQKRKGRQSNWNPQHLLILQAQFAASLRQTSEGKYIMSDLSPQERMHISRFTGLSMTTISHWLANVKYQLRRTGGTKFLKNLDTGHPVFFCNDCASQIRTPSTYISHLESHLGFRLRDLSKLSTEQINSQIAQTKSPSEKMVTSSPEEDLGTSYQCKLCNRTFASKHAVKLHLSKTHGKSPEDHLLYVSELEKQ
Test: co-IP; H4 cells transiently transfected with FLAG-FE65 and myc-Teashirt3 (human); IP with anti-myc or control mouse IgG, blot with anti-FE65; lysis in PBS/0.5% Triton X-100

- binding: binds
B1: FLAG-tagged rat FE65 (protein, UniProt P46933 1-711)
chain: MSVPSSLSQSAINANSHGGPALSFPFPLHAAHNQLLNAKLQATAVVPKDLRSAMGEGSVPEPGPANAKWLKEGQNQLRRAATAHRDQNRNVTLTLAEEASQEAETAPLGPKGLMHLYSELELSAHNAANRGLHGSALIINTQGLGPDEGEEKAAGEVEEEDEDEEEEDEEEEDLSSPQGLPEPLENVEVPSGPQVLTDGPREHSKSASLLFGMRNSAASDEDSSWATLSQGSPSYGSPEDTDSFWNPNAFETDSDLPAGWMRVQDTSGTYYWHIPTGTTQWEPPGRASPSQGNSPQEESQLTWTGFAHQEGFEEGEFWKDEPSEEAPMELGLKDPEEGTLPFSAQSLSPEPVPQEEENLPQRNANPGIKCFAVRSLGWVEMTEEELAPGRSSVAVNNCIRQLSYHKNNLHDPMSGGWGEGKDLLLQLEDETLKLVEPQNQTLLHAQPIVSIRVWGVGRDSGRERDFAYVARDKLTQMLKCHVFRCEAPAKNIATSLHEICSKIMSERRNARCLVNGLSLDHSKLVDVPFQVEFPAPKNELVQKFQVYYLGNVPVAKPVGVDVINGALESVLSSSSREQWTPSHVSVAPATLTILHQQTEAVLGECRVRFLSFLAVGRDVHTFAFIMAAGPASFCCHMFWCEPNAASLSEAVQAACMLRYQKCLDARSQTSTSCLPAPPAESVARRVGWTVRRGVQSLWGSLKPKRLGSQTP
